Source: US10940110B2, “Method and system for the treatment of chronic COPD with nebulized anticholinergic administrations” (Sunovion Respiratory Development Inc., priority 2008, dated 2021)
Where two headings read alike, the source gives them in different places.

Columns and labels:
[1] = plasma, 200 μg; for Cmax: COPD patients
clinical = conditions: human, plasma, inhaled, 200 ug

Compound: C[N+]1(C)CCC(OC(=O)C(O)(c2ccccc2)C2CCCC2)C1 (stereo not drawn) [glycopyrrolate, 3-[(cyclopentylhydroxyphenylacetyl)oxy]-1,1-dimethylpyrrolidinium]
- Cmax ([1]; Conventional (jet) Nebulizer): 0.076 ng/mL
- AUC(0-inf) ([1]; Conventional Nebulizer): 0.07 ng·h/mL
- AUC(0-t) ([1]; Conventional Nebulizer): 0.026 ng·h/mL
- Cmax/AUC(0-t) ([1]; Conventional Nebulizer): 2.92 h⁻¹
- Tmax ([1]; Conventional Nebulizer): about 8 min
- Tmax ([1]; Conventional Nebulizer, listed as Glycopyrrolate): 8.2 min
- AUC(0-inf) ([1]; High Efficiency Nebulizer): 0.615 ng·h/mL
- AUC(0-t) ([1]; High Efficiency Nebulizer): 0.429 ng·h/mL
- Cmax/AUC(0-t) ([1]; High Efficiency Nebulizer): 0.41 h⁻¹
- Tmax ([1]; High Efficiency Nebulizer): 11.6 min
- Cmax ([1]; High Efficiency Nebulizer (eFlow)): 0.177 ng/mL
- Tmax (clinical): ~12 min
